In the supplement of paper PMC10849652:
The other results are listed elsewhere or left out.

Sequences of proteins named here, by UniProt entry; tags and fusion partners are left off. A change or cut given only in a name is not applied to a line headed by its entry.
UniProt Q12999: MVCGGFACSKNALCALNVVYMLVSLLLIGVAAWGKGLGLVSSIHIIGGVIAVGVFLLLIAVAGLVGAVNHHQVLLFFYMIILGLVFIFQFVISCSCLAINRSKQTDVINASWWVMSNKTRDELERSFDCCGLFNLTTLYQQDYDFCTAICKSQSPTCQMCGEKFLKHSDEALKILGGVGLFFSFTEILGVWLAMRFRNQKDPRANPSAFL
UBE2L5, A0A1B0GUS4, UniProt A0A1B0GUS4, whole entry, looked up: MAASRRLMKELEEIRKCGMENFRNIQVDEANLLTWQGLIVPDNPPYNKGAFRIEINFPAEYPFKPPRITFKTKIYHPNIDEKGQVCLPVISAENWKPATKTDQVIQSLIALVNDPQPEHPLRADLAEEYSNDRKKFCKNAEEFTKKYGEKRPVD
UniProt A6NNZ2, whole entry, looked up: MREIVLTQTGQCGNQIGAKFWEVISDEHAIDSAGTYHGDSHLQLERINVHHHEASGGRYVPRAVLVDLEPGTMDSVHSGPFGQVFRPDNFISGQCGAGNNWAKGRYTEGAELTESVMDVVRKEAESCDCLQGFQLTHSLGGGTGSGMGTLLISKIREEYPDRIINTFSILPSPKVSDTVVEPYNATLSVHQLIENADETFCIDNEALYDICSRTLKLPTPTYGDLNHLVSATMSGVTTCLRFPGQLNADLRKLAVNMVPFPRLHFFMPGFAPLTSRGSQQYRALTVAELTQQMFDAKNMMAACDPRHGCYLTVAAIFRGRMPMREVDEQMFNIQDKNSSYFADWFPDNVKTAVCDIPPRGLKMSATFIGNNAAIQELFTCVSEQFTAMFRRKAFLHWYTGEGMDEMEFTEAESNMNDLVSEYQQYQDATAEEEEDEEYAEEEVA
UniProt Q16762: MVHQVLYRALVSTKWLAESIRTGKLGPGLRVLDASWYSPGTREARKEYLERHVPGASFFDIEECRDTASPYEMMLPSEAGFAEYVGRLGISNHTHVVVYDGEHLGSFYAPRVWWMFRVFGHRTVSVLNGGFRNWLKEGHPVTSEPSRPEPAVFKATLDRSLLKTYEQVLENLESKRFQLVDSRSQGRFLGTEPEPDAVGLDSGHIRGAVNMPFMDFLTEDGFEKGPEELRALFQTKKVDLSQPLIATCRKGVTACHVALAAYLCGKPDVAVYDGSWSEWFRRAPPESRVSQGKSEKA
UniProt P40222: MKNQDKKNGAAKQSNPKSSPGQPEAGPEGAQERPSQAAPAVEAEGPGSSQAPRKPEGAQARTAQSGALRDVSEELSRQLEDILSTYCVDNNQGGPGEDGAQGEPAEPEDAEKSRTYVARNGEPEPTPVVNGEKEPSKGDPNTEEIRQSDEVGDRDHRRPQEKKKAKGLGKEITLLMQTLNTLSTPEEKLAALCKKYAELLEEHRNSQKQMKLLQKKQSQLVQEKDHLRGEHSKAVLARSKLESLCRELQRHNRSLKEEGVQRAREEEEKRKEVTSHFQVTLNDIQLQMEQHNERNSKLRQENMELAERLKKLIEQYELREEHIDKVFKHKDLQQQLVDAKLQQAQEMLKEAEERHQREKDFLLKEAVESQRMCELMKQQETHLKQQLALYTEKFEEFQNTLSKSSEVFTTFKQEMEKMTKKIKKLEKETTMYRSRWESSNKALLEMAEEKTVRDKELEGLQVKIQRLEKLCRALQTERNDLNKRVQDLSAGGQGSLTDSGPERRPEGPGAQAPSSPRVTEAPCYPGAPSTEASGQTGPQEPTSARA
UniProt Q9BUF5, whole entry, looked up: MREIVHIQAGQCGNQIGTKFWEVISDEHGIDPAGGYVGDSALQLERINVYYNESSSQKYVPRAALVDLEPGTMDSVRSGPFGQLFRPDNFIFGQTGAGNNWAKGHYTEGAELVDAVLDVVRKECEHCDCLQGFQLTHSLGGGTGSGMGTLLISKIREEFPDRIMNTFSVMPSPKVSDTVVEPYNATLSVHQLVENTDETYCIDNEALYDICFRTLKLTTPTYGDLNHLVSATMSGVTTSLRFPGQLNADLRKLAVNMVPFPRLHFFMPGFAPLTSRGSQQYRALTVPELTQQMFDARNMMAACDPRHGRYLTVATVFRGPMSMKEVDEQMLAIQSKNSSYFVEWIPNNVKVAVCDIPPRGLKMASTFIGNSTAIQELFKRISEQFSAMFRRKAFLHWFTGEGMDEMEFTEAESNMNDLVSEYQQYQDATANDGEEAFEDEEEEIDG
UniProt P60604: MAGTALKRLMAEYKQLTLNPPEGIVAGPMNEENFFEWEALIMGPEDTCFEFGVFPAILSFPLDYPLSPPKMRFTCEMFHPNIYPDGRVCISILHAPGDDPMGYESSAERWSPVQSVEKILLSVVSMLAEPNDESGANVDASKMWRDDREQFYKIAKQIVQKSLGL
UniProt Q9P2K2: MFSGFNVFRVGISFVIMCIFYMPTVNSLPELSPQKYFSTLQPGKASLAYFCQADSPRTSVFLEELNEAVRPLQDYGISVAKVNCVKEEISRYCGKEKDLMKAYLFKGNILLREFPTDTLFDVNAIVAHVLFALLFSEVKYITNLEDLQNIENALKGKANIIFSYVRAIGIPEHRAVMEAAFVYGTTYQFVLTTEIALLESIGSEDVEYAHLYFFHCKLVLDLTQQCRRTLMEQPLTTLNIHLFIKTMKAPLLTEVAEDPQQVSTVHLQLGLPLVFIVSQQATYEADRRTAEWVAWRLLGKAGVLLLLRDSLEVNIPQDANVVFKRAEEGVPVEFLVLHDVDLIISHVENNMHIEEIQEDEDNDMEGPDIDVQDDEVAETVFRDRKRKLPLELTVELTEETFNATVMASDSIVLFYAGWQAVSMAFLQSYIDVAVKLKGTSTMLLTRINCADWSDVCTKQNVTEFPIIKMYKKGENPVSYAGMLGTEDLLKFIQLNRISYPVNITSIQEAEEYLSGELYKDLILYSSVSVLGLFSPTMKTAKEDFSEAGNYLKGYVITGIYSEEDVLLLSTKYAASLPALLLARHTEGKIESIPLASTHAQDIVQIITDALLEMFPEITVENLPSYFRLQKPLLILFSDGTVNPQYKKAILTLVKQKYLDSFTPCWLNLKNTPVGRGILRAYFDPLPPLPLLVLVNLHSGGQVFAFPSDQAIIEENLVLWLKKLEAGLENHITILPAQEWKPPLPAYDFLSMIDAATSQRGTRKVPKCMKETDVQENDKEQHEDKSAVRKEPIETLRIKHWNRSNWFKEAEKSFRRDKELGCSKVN
UniProt Q14166: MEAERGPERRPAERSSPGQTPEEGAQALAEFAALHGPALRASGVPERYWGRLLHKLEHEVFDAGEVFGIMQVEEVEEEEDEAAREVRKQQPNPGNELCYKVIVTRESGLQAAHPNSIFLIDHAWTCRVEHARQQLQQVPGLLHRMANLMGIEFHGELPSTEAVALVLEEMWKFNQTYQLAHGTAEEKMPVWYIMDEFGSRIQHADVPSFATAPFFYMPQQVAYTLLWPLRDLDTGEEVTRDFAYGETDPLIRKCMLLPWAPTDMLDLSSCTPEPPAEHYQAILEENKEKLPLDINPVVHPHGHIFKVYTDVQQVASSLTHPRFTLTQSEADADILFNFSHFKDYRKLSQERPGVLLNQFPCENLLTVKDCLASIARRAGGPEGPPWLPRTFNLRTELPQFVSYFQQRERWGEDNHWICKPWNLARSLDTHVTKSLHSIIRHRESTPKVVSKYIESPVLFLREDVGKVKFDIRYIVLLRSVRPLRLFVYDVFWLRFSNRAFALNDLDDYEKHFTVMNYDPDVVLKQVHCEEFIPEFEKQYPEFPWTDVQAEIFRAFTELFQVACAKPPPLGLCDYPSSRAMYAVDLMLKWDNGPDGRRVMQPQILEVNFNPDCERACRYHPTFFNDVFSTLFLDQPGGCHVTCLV
UniProt Q8NBP0: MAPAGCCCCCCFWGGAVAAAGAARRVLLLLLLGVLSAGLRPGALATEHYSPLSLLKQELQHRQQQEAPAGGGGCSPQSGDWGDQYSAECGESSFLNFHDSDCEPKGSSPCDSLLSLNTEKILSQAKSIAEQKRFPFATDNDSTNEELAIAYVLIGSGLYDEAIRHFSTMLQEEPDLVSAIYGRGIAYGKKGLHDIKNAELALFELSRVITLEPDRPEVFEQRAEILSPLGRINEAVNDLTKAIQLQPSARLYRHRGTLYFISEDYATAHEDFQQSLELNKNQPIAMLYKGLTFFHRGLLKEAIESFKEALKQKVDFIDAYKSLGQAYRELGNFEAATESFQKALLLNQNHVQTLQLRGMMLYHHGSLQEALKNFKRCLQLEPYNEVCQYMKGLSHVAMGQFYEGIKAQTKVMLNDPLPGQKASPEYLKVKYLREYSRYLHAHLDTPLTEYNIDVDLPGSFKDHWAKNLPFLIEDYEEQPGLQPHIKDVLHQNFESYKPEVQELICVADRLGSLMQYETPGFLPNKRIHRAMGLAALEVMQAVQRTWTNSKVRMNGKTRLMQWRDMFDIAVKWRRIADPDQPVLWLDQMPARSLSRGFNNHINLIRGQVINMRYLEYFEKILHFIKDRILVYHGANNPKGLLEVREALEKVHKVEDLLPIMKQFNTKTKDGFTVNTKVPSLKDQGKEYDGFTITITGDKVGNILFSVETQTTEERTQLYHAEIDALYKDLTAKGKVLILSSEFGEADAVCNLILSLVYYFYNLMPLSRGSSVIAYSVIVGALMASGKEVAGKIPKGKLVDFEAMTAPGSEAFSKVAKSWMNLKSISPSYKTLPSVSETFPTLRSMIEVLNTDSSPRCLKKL
UniProt Q8N0Z6: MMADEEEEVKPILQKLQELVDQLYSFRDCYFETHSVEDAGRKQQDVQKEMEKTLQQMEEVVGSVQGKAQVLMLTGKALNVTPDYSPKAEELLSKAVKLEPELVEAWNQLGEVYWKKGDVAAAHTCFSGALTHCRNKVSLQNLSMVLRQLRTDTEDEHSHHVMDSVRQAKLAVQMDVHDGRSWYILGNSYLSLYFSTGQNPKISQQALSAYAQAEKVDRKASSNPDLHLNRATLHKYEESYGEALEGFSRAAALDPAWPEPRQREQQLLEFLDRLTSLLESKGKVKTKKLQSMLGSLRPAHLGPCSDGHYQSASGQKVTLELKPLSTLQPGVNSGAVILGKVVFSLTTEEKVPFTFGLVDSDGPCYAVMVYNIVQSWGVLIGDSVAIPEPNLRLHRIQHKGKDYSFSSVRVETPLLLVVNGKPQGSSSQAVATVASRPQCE
UniProt Q13509, whole entry, looked up: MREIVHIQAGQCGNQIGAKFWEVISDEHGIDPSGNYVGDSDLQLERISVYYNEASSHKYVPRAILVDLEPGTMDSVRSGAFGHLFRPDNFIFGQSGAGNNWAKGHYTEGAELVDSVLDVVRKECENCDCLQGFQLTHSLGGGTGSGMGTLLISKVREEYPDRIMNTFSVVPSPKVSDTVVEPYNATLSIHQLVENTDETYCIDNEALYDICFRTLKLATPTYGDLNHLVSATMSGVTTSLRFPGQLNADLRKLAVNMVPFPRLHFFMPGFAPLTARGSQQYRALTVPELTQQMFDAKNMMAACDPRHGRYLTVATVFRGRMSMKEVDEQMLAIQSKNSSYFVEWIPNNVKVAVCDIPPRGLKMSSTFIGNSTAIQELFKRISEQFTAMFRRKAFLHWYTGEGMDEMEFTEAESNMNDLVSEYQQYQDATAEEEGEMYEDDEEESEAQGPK
UniProt Q9BQE3, whole entry, looked up: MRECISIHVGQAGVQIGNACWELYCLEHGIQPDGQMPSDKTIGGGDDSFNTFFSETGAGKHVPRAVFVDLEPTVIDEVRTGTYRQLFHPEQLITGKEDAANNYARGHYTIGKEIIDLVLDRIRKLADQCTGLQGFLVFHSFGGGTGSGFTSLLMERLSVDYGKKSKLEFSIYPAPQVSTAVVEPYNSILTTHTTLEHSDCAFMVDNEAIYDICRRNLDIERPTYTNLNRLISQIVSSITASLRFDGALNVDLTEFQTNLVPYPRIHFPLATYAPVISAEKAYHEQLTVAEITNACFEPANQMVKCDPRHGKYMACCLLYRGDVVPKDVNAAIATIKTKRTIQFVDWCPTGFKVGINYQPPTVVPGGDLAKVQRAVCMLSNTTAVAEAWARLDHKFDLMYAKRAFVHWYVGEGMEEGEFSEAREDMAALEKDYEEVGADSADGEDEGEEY
UniProt Q86VQ3: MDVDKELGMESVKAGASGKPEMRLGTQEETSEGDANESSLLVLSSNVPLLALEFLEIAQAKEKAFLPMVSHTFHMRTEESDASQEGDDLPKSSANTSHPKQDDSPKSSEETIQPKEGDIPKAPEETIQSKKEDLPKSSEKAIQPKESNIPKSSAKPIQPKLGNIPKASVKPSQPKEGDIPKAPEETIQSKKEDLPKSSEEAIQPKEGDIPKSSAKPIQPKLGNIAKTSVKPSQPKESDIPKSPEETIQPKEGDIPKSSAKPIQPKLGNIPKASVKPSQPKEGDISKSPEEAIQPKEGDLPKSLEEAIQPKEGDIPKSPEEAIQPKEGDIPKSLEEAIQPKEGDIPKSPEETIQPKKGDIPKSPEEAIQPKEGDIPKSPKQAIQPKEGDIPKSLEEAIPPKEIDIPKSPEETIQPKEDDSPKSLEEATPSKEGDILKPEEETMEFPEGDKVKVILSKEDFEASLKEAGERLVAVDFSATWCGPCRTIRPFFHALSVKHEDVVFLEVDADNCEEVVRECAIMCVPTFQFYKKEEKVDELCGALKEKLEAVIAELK

Compound: c1cn2cc(-c3ccc4cn[nH]c4c3)nc(Nc3ccc(N4CCOCC4)cc3)c2n1 [entospletinib]
Assay: log2 fold change, soluble protein after heating vs DMSO (PISA); higher = thermal stabilisation; K562 cells, 10 uM, 30 min; active = over 0.2 and 3.5 SD of the protein, either way, in both replicates (recomputed)
Procedure, shortened: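 Thermal stability values are relative to control samples and come from duplicates. They are expressed as log2 fold changes. For measurement, K562 cells (2×10^6 cells/mL) received 10 μM compound for 30 min, and aliquots were heated for 3 min over 48°C-58°C, pooled, and extracted at 4°C in PBS with 0.5% NP-40. Soluble protein, the supernatant after 21,000xg for 90 min, was quantified by TMTpro 16plex LC-MS/MS with equalised channel sums.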

Target	log2 fold change
TSPAN31 (UniProt Q12999)	inactive: -0.045
TTC17 (UniProt Q96AE7)	inactive: -0.019
TSR1 (UniProt Q2NL82)	inactive: -0.056
TXNDC9 (UniProt O14530)	inactive: 0.078
TUBA3C (UniProt P0DPH7)	inactive: -0.029
TYW3 (UniProt Q6IPR3)	inactive: -0.028
UBE2L5, A0A1B0GUS4	inactive: -0.057
UBE2K (UniProt D6RDM7)	inactive: 0.135
TUBB8B (UniProt A6NNZ2)	inactive: -0.021
TTN isoform 12 (UniProt Q8WZ42)	inactive: 0.114
TST (UniProt Q16762)	inactive: 0.294
UBA3 (UniProt Q8TBC4)	inactive: -0.046
TVP23C (UniProt Q96ET8)	active: 0.419
TXLNA (UniProt P40222)	inactive: -0.01
TTC27 (UniProt Q6P3X3)	inactive: 0.175
TUBB (UniProt P07437)	inactive: -0.001
TTC14 (UniProt Q96N46)	inactive: 0.027

Target	log2 fold change
TUBB6 (UniProt Q9BUF5)	inactive: 0.019
UBE2K (UniProt P61086)	inactive: -0.029
UBE2G1 (UniProt P62253)	inactive: 0.02
UBE2G2 (UniProt P60604)	inactive: 0.053
TXNDC16 (UniProt Q9P2K2)	inactive: -0.168
TTLL12 (UniProt Q14166)	inactive: 0.347
TTC1 (UniProt Q99614)	inactive: 0.036
TTC13 (UniProt Q8NBP0)	inactive: -0.063
TTC5 (UniProt Q8N0Z6)	inactive: -0.062
UBE2NL (UniProt Q5JXB2)	inactive: -0.062
TUBB3 (UniProt Q13509)	inactive: -0.002
TUBA1C (UniProt Q9BQE3)	inactive: 0.02
TTC9C (UniProt Q8N5M4)	inactive: 0.072
TWF1 (UniProt Q12792)	inactive: 0.099
TXNDC2 (UniProt Q86VQ3)	inactive: 0.072
TTC12 isoform 2 (UniProt Q9H892)	inactive: 0.031
TSPO (UniProt P30536)	inactive: -0.011

Some of the entries so far, comma-delimited:
Target,log2 fold change
TTC9C (UniProt Q8N5M4),inactive: 0.072
TWF1 (UniProt Q12792),inactive: 0.099
